Test results taken from patent publication US20220025373.
For at least one entry, the source does not settle the construct or the ends of the probe. For some of these results: No signal at the amounts used counts as a negative.

Experiments:
[1] = test system: Thrombin; assay: EMSA; settings: 2'-F at all C and U; 5 pmol RNA + 25 pmol protein, 37 C 1 h
[2] = biological target: Bovine serum albumin (BSA) (Bos taurus) (UniProt P02769); assay: EMSA; settings: 2'-F at all C and U; 37 C 1 h
[3] = test system: Factor IXa; assay: EMSA; settings: 2'-F at all C and U; 37 C 1 h
[4] = test system: Factor Xa; assay: EMSA; settings: 2'-F at all C and U; 37 C 1 h
[5] = test system: Thrombin (in pooled human plasma) (Homo sapiens); assay: inhibition of the protein; settings: 2'-F at all C and U, protein in an extract, protein details: pooled human plasma, George King Bio-Medical
[6] = aPTT clotting time in pooled human plasma, range given for all modified two-aptamer origami, dose not given here

Sequence	binding result [1]	binding result [2]	binding result [4]	further results
GGAAAUGAUGCCGAGUUGACGCUUCGGCGUCAGCUCGCCCUGUGGCCUAGUUCGCUAGGUCACAGACAUCUUGGCGUUCGCGCCAGGAUGUCUCGCCCAAUUCCGUAGGGCGAGGGUAGCCAAAUCCAGAGGCUAGCAUUAUUUCCGAUCUAGGAUCGCGUUGAGAACUGGAUACUCAACAGCGGUAAACGGAAAACCGCUCAGCCGAAGUGUCUUGCGGGAACAAAGCUGAAGUACUUACCCGCAAGGCACUUUGGCUGGCCACGCGUCGUAUUCGUACGGCGCGUGCUAGACUGGCUGGCGGCGGUCGAUCACACAGUUCAAACGUAAUAAGCCAAUGUACGAGGCAGACGACUCGCCGCCAGCUAGUUUAGGAUUCUAGAUC [3HF-RNA-2NN1]	binds	no binding	no binding	binding result [3]: no binding
GGAAAUGAUGCCGAGUUGACGCUUCGGCGUCAGCUCGCCCUGUGGCCUAGUUCGCUAGGUCACAGCCGACCAUUGCGUUUCGACGCAGUGGUCACAUCUUGGCGUUCGCGCCAGGAUGUCUCGCCCAAUUCCGUAGGGCGAGGGGACCCAAAUCCCUAGGGUCGGUAGCCAAAUCCAGAGGCUAGCAUUAUUUCCGAUCUAGGAUCGCGUUGAGAACUGGAUACUCAACCGUGGCAUAAAGGGAUAAUGCCAAGCGGUAAACGGAAAACCGCUCAGCCGAAGUGUCUUGCGGGAACAAAGCUGAAGUACUUACCCGCAAGGCACUUUGGCUGCGUGGCGUUACAGUUCGCUGUGACGCCAGCCACGCGUCGUAUUCGUACGGCGCGUGCUAGACUGGCUGGCGGCGGUCGAUCACACAGUUCAAACGUAAUAAGCCAAUGUACGAGGCAGACGACUCGCCGCCAGCUAGUUUAGGAUUCUAGAUC [4HF-RNA-2NN1]	binds	no binding	no binding	binding result [3]: no binding
GGGAACAAAGCUGAAGUACUUACCCACCUUACCACUCCACCUCACUCACCUAUUACGGCGGUCGAUCACACAGUUCAAACGUAAUAAGCCAAUGUACGAGGCAGACGACUCGCC [Fss12]	–	–	–	functional effect of the aptamer ([5]; aPTT, 500 nM, higher than free aptamers, lower than 2HF-RNA-2NN1): active
GGGAGAUCGAGCGACUUCCGACGGGAACAAAGCUGAAGUACUUACCCGUCGGGAGUCGGGCUAGUCAUCUUCGGAUGAUUAGCCGCUGGUGAAGCCUCCACGCCAGCCUCGGUCUCCCGCAGUAGGAUCGGACUGAAGGAGGCACGGUCCCAGCCGAAGUGUCUGGCGGUCGAUCACACAGUUCAAACGUAAUAAGCCAAUGUACGAGGCAGACGACUCGCCAGGCACUUUGGCUGCUAGACUGGCUGGCUUCGGCCAGCUAGUUUAGGAUUCUAUUGC [2HF-RNA-1N2N]	–	–	–	functional effect of the aptamer [5, 6]: active
GGGAGAUCGAGCGACUUCCGACUCUGGCGGUCGAUCACACAGUUCAAACGUAAUAAGCCAAUGUACGAGGCAGACGACUCGCCAGAGUCGGGAGUCGGGCUAGUCAUCAGGCACGGGAACAAAGCUGAAGUACUUACCCGUGCCUGAUGAUUAGCCGCUGGUGAAGCCUCCACGCCAGCCUCGGUCUCCCGCAGUAGGAUCGGACUGAAGGAGGCACGGUCCCAGCCGAAGUGUCUUGCGGGAACAAAGCUGAAGUACUUACCCGCAAGGCACUUUGGCUGCUAGACUGGCUGGCGGCGGUCGAUCACACAGUUCAAACGUAAUAAGCCAAUGUACGAGGCAGACGACUCGCCGCCAGCUAGUUUAGGAUUCUAUUGC [2HF-RNA-2211]	binds	no binding	no binding	functional effect of the aptamer ([5]; aPTT clotting time at 400 nM, coagulometer maximum): > 999 s
GGGAGAUCGAGCGACUUCCGACUUCGGUCGGGAGUCGGGCUAGUCAUCGGGAACAAAGCUGAAGUACUUACCCGAUGAUUAGCCGCUGGUGAAGCCUCCACGCCAGCCUCGGUCUCCCGCAGUAGGAUCGGACUGAAGGAGGCACGGUCCCAGCCGAAGUGUCUGGCGGUCGAUCACACAGUUCAAACGUAAUAAGCCAAUGUACGAGGCAGACGACUCGCCAGGCACUUUGGCUGCUAGACUGGCUGGCUUCGGCCAGCUAGUUUAGGAUUCUAUUGC [2HF-RNA-12NN]	–	–	–	functional effect of the aptamer [5, 6]: active
GGGAGAUCGAGCGACUUCCGACUUCGGUCGGGAGUCGGGCUAGUCAUCUUCGGAUGAUUAGCCGCUGGUGAAGCCUCCACGCCAGCCUCGGUCUCCCGCAGUAGGAUCGGACUGAAGGAGGCACGGUCCCAGCCGAAGUGUCUUGCGGGAACAAAGCUGAAGUACUUACCCGCAAGGCACUUUGGCUGCUAGACUGGCUGGCGGCGGUCGAUCACACAGUUCAAACGUAAUAAGCCAAUGUACGAGGCAGACGACUCGCCGCCAGCUAGUUUAGGAUUCUAUUGC [2HF-RNA-2NN1]	–	–	–	functional effect of the aptamer ([5]; aPTT clotting time in pooled human plasma, range for all modified two-aptamer origami, about 80% reversed by DNA antidote, dose not given here): active
